{
  "sequences": {"note": "Amino acid sequences for entries named in this document (tags omitted).", "UniProt Q7Z434": "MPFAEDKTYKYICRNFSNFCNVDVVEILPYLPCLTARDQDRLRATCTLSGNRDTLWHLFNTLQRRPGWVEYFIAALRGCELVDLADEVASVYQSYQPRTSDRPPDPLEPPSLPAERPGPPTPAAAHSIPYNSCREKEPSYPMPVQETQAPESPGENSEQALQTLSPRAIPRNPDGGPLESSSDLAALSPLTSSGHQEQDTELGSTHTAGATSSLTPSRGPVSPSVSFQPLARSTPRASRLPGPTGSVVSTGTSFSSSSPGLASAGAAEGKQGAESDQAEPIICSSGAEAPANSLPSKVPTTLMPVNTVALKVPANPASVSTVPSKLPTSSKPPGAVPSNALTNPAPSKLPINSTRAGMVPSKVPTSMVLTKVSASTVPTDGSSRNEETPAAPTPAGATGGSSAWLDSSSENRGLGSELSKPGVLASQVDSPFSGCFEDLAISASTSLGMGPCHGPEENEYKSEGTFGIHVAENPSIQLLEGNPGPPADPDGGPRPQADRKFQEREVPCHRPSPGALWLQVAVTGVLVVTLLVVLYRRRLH"},
  "source": "paper PMC8646042",
  "binders": {"B1": {"name": "Flag-tagged N4BP3 (NEDD4 binding protein 3) (protein, UniProt O15049 1-544)", "chain": "MATAPGPAGIAMGSVGSLLERQDFSPEELRAALAGSRGSRQPDGLLRKGLGQREFLSYLHLPKKDSKSTKNTKRAPRNEPADYATLYYREHSRAGDFSKTSLPERGRFDKCRIRPSVFKPTAGNGKGFLSMQSLASHKGQKLWRSNGSLHTLACHPPLSPGPRASQARAQLLHALSLDEGGPEPEPSLSDSSSGGSFGRSPGTGPSPFSSSLGHLNHLGGSLDRASQGPKEAGPPAVLSCLPEPPPPYEFSCSSAEEMGAVLPETCEELKRGLGDEDGSNPFTQVLEERQRLWLAELKRLYVERLHEVTQKAERSERNLQLQLFMAQQEQRRLRKELRAQQGLAPEPRAPGTLPEADPSARPEEEARWEVCQKTAEISLLKQQLREAQAELAQKLAEIFSLKTQLRGSRAQAQAQDAELVRLREAVRSLQEQAPREEAPGSCETDDCKSRGLLGEAGGSEARDSAEQLRAELLQERLRGQEQALRFEQERRTWQEEKERVLRYQREIQGGYMDMYRRNQALEQELRALREPPTPWSPRLESSKI"}, "B2": {"name": "Myc-tagged or HA-tagged N4BP3 (Figure 4D) (protein, UniProt O15049 1-544)", "chain": "B1 chain"}},
  "key": {"HA-labeled RIG-I (human)": {"target": "T1, HA-labeled RIG-I (human) (UniProt O95786)", "T1 sequence": "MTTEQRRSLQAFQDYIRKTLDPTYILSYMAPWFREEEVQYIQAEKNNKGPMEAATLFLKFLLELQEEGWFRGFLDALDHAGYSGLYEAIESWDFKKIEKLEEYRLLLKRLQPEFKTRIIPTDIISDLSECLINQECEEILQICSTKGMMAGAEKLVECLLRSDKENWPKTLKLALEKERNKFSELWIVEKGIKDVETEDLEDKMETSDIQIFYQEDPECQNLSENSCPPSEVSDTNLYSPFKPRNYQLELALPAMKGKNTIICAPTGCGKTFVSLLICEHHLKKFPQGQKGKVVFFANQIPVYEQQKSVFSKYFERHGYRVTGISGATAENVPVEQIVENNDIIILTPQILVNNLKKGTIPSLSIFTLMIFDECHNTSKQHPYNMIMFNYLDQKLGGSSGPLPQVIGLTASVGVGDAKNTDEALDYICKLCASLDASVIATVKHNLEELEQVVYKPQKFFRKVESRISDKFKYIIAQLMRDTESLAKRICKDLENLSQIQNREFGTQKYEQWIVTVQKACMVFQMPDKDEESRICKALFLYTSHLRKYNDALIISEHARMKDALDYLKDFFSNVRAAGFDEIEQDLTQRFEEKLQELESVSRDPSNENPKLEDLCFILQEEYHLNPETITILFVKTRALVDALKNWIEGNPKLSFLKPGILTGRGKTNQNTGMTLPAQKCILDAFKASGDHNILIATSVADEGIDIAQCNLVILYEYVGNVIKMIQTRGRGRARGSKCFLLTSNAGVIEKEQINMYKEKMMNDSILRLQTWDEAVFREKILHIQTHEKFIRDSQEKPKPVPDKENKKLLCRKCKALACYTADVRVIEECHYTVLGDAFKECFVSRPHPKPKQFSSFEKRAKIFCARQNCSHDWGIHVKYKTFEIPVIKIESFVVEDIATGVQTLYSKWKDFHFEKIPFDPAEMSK", "assay": "co-IP; 293T cells co-transfected, left uninfected or infected with SeV; lysis in 20 mM Tris pH 7.5, 150 mM NaCl, 1% Triton, 1 mM EDTA; immunoprecipitation with anti-HA, immunoblot with anti-Flag; with or without myc-N4BP3 for MAVS with TRAF2 or TRAF3"}, "[1]": {"target": "HA-tagged MAVS (mitochondrial antiviral signaling protein) (human) (UniProt Q7Z434)", "assay": "co-IP; 293T cells co-transfected, left uninfected or infected with SeV; lysis in 20 mM Tris pH 7.5, 150 mM NaCl, 1% Triton, 1 mM EDTA; immunoprecipitation with anti-HA, immunoblot with anti-Flag; with or without myc-N4BP3 for MAVS with TRAF2 or TRAF3"}, "Flag-tagged MAVS (human)": {"target": "Flag-tagged MAVS (human) (UniProt Q7Z434)", "assay": "co-IP; 293T cells transfected for 24 h with Flag-MAVS with or without tagged N4BP3 and Myc-NEDD4; co-immunoprecipitation and immunoblotting with the indicated antibodies (not given)"}},
  "note": "Results are given in words; binding and its absence hold for the method and conditions named. In cells and extracts the contact can be indirect. Some results given as binding are weak or reduced against the parent protein; the word gives no strength. Where a sequence is shown, tags or fusion partners need not be part of it.",
  "data": [
    {"binder": "B1", "values": [
      {"measurement": "binding", "setting": "HA-labeled RIG-I (human)", "result": "binds"},
      {"measurement": "binding", "setting": "[1]", "result": "binds"}
    ]},
    {"binder": "B2", "values": [
      {"measurement": "binding", "setting": "Flag-tagged MAVS (human)", "result": "binds"}
    ]}
  ]
}
